These results are taken from paper doi:10.1101/2024.09.02.610768 (bioRxiv, 2024).

What all share (test): EMSA
On the technique in general: Mobility shift assays separate free from complexed probe on a gel.

The target in one series is T1, FrzCD (UniProt P43500).
T1 sequence (looked up): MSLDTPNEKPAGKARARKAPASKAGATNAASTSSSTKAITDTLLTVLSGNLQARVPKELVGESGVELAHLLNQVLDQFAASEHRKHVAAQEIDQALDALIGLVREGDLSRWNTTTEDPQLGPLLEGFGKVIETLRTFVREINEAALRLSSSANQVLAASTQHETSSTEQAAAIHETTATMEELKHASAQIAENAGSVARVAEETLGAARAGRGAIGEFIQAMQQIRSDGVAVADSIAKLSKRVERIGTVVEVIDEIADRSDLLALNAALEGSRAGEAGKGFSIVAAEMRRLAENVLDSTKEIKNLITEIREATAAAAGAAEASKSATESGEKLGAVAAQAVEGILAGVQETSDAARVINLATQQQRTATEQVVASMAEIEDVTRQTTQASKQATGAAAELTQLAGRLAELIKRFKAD
As to conditions: residues 1-417.

For series [1], the target named is T2, FrzCDΔMA (DB-H1-H2) del138-417 (UniProt P43500).
T2 sequence (looked up, limits assumed): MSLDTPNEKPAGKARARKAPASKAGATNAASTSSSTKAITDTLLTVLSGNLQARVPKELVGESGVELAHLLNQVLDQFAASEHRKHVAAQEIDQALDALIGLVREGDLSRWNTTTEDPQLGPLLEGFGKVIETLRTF
The note with it: smear, unstable complex.

For a further series, the target named is T3, FrzCDΔH1ΔH2 del31-137 (UniProt P43500).
T3 sequence (looked up, limits assumed): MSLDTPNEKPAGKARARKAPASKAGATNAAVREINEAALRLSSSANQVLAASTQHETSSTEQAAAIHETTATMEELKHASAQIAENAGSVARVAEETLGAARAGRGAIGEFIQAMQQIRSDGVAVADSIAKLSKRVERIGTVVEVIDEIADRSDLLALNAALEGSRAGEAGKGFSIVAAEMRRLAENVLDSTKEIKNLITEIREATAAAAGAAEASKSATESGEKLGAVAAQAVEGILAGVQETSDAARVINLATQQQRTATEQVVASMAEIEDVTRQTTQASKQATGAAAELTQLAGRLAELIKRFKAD
As to conditions: higher affinity than wild type.

Another series deals with T4, FrzCDΔH1 del31-83 (UniProt P43500).
T4 sequence (looked up, limits assumed): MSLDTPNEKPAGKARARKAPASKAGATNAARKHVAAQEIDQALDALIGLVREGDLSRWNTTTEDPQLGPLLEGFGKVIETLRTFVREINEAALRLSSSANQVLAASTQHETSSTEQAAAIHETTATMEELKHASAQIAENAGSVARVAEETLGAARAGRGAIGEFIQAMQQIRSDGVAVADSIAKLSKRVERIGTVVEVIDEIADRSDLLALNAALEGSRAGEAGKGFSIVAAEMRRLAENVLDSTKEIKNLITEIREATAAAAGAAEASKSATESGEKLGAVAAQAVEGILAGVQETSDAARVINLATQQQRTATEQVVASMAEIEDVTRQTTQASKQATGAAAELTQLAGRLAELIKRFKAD

Series [2] addresses T5, FrzCDΔH2 (DB-H1-MA) del84-137 (UniProt P43500).
T5 sequence (looked up, limits assumed): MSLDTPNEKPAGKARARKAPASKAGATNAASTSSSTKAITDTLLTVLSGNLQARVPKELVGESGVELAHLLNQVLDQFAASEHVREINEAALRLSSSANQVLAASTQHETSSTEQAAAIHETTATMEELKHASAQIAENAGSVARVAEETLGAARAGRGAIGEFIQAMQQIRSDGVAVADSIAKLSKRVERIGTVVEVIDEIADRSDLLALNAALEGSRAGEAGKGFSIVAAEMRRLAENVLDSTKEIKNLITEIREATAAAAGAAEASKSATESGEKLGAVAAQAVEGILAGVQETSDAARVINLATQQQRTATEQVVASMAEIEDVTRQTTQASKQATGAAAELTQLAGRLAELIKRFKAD

Construct, isoform or probe ends are uncertain for at least one entry. For part of these data: The comparison behind a weaker result is the experiment's own reference, which may not be listed here. For part of these data: At least one verdict rests on a figure or table, not on a statement of the authors. Protein sequences can lack the tags named with them.

For “CTCACTATAGGG (double strand) [12 bp DNA]”, the binding result in the series with FrzCD is reported as “binds”.
The same measure, in the same setting: then “CTTGCAGTAGAGCTGACCATGATTACGCCATCAGCAGCTCCAGGTCGTACCTCCAGCTACCAATCCCCG (double strand) [69 bp DNA]”, with “binds”; and “GTCACCTGCTCTAGCTAATAGACTGAGCCGAGGTG (double strand) [35 bp DNA]”, with “binds”.
“TAATACGACTCACTATAGGG (double strand) [20 bp DNA]”: the binding result with FrzCD is on record as “binds”; in series [1] it was “binds more weakly”.
In the case of “TAATACGACTCACTATAGGGAGACCACAACGGTTTCCCTCTAGAAATAATTTTGTTTAACTTTAAGAAGGAGATATACATATGTCCCTGGACACCCCCAACGAGAAGCCCGCTGGCAAGGCTCGCGCCCGGAAGGCCCCCGCCTCCAAGGCCGGCGCCACGAACGCGGCGTCGACCTCTTCCTCCACCAAGGCCATCACCGACACGCTGCTGACGGTGCTGTCCGGCAACCTGCAGGCCCGCGTGCCCAAGGAGCTGGTCGGTGAGTCCGGCGTGGAGCTGGCGCACCTGCTCAACCAGGTGCTGGACCAGTTCGCGGCCTCCGAGCACCGCAAGCATGTGGCGGCGCAGGAGATCGACCAGGCGTTGGATGCGCTCATCGGCCTGGTGCGCGAGGGCGGATCCCATCATCATCATCATCATTAAAAGC (double strand) [432 bp DNA]”, the binding result (with FrzCD; with FrzCDΔH1ΔH2 del31-137; in the series with FrzCDΔH1 del31-83; in series [2]) was “binds” each time.
